The source of these data is PMC6532135.

Chains of the proteins cited; added tags and fusions are not shown. Lines headed by an entry give the natural chain unless they say otherwise; changes in a name come on top. A line that says so, or that is headed by a name, gives the form on record, which may keep a tag or linker. Residues count along the entry.
UniProt P02545, residues 1-646: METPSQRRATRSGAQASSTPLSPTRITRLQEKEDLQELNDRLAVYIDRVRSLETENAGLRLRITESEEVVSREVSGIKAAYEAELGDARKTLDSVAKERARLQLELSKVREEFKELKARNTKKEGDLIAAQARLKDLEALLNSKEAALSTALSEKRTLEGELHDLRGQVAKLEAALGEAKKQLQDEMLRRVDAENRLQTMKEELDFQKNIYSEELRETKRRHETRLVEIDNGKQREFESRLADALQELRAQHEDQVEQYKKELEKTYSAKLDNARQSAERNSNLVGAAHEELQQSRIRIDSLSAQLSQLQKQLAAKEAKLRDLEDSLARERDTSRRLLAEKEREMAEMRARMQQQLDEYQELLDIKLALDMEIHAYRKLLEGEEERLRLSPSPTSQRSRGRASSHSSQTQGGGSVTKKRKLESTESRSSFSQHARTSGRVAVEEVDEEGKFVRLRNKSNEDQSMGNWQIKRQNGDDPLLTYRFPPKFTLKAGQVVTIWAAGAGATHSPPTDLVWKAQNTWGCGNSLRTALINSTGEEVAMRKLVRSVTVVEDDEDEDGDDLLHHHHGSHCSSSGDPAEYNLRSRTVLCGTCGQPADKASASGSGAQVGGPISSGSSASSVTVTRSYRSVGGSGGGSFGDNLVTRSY
Nuclear Myosin 1 (O00159-3, form named): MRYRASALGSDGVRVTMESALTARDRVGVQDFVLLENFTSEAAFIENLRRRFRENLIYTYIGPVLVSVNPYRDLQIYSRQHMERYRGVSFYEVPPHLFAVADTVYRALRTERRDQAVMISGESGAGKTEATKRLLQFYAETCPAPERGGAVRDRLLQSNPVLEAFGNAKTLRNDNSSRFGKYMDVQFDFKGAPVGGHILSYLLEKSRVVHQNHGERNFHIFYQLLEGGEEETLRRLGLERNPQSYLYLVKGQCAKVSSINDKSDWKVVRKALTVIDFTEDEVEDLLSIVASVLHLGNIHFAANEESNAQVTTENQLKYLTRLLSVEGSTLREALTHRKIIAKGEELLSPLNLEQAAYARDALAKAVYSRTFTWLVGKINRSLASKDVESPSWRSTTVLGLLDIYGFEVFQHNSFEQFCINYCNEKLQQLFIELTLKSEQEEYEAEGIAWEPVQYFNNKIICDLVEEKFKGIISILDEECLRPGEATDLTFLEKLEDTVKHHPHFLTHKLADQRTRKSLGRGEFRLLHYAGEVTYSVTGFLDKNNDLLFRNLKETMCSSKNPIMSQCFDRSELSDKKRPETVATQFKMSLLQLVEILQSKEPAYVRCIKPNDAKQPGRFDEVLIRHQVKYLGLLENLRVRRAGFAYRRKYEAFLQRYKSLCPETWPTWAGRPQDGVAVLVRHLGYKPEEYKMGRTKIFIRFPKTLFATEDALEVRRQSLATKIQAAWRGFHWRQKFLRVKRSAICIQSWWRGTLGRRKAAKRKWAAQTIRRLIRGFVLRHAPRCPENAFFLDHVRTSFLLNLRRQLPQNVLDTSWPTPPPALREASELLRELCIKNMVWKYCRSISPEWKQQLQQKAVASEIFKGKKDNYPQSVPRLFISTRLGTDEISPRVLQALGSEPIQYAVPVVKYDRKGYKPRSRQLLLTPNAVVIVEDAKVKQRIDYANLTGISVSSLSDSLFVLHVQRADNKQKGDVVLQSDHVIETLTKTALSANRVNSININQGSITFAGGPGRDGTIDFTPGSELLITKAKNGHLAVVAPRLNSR

No constants are given. Whether binding was seen depends on the method and setting. In cells and extracts the contact can be indirect. Some binding calls cover weakened binding; strength is not graded here.

The target of this test is T1, Emerin (human (endogenous in DLD-1)) (UniProt P50402).
T1 sequence: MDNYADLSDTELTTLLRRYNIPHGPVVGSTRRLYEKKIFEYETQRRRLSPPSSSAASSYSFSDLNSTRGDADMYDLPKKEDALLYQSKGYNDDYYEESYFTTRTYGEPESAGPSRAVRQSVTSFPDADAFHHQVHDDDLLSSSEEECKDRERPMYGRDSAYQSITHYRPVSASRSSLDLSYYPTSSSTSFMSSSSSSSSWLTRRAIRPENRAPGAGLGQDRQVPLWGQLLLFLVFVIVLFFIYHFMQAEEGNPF
In words: co-IP; anti-Emerin antibody (sc25284) on 120 ug DLD-1 lysate, control (untreated or siLacZ) and Lamin A/C depleted cells (48 h post Lamin A/C Kd); Co-IP Lysis Buffer 50 mM Tris pH 8.0, 300 mM NaCl, 0.5% NP-40; overnight at 4 °C; Protein G/A-Dynabeads; blots probed for NM1 and Lamin A.

Regarding Lamin A (from UniProt P02545 1-646), the binding entry was “binds”.
With “Nuclear Myosin 1 (from UniProt O00159-3 1-1044)”, the binding entry is “binds”.
